Reference: the M2OR odorant receptor database
The list shows a part of the results. The calls were merged from several studies; some rest on single wells.

Chains of the proteins cited; added tags and fusions are not shown. Chains listed by the source or under a name are the forms on record and can include a tag or linker.
O4A15, as listed by the source: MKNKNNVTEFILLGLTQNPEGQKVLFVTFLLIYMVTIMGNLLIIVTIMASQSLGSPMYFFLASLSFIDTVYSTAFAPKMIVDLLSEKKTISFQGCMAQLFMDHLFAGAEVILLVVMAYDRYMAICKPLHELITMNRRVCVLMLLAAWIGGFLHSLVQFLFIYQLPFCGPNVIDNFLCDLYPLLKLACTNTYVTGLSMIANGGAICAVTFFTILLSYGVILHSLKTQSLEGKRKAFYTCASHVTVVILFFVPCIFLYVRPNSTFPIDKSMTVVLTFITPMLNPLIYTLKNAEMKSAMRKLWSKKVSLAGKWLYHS

Legend:
Conditions in all cases: stereoisomer not certain
O2AG2 = test system: T1, O2AG2
T1 sequence (whole entry): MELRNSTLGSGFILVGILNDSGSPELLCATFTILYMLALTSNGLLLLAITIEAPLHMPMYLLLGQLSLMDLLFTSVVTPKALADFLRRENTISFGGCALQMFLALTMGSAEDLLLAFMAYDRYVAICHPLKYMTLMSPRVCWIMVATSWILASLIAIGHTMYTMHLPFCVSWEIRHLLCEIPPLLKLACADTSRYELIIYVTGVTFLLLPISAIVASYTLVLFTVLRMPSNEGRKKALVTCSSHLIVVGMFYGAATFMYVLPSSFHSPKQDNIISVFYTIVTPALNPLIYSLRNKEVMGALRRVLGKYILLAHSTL
Summary of the method: (§1)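 Transient luciferase assays in mammalian cell lines were common, though methods varied by source. The values come from published papers and their supplementary material, with extra details from the original authors when needed. Responsive refers to a measured signal the original authors judged statistically different from baseline, and non-responsive (inactive) to the remainder.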

O2AJ1 = test system: T2, O2AJ1
T2 sequence (whole entry): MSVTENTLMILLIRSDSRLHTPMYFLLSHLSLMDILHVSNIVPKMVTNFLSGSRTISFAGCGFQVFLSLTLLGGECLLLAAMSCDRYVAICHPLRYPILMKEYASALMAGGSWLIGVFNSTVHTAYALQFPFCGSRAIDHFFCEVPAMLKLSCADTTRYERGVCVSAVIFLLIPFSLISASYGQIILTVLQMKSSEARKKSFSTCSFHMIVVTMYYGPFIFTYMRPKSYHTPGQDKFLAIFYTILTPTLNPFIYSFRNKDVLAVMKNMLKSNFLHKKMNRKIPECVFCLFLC
Summary of the method: as §1

O2AK2 = test system: T3, O2AK2
T3 sequence (whole entry): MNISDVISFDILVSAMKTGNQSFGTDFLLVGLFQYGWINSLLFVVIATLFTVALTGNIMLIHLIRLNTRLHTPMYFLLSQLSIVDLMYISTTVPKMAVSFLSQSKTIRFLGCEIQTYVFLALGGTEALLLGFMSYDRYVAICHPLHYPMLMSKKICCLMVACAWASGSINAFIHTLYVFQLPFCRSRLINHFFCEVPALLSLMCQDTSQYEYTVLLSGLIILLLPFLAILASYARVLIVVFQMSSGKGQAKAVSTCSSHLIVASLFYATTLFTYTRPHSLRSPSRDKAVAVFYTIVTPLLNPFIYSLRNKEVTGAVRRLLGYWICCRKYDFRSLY
Summary of the method: as §1

O2T11 = test system: T4, O2T11
T4 sequence (whole entry): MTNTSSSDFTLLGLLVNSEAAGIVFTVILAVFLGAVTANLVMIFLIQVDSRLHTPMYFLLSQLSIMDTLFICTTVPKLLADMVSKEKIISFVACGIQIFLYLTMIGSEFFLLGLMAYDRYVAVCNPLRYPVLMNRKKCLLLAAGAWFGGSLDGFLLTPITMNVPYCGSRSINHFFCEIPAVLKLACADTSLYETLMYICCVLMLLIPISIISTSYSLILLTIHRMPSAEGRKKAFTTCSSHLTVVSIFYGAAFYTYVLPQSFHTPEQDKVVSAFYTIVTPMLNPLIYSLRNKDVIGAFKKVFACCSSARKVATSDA
Summary of the method: as §1

O2T29 [1] = test system: T5, O2T29
T5 sequence (whole entry): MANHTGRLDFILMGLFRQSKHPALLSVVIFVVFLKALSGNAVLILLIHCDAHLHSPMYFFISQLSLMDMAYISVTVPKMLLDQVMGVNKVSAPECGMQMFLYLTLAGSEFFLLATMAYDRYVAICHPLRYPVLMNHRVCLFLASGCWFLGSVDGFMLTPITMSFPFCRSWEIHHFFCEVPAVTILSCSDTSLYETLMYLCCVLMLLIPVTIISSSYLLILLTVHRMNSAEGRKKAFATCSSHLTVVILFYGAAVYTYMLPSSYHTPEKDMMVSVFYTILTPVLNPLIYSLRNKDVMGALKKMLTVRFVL
Summary of the method: as §1

O2T29 [2] = test system: T6, O2T29; remark: listed apart in the source
T6 sequence (whole entry): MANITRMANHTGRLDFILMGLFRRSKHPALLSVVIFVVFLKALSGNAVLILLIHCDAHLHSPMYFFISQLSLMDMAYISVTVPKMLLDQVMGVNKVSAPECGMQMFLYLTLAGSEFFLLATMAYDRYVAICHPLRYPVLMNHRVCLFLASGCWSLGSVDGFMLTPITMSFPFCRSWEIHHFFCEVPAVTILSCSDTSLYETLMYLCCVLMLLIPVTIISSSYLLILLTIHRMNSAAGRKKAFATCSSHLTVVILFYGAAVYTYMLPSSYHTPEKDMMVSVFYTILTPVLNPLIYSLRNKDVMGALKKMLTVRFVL
Summary of the method: as §1

O2T33 = test system: T7, O2T33
T7 sequence (whole entry): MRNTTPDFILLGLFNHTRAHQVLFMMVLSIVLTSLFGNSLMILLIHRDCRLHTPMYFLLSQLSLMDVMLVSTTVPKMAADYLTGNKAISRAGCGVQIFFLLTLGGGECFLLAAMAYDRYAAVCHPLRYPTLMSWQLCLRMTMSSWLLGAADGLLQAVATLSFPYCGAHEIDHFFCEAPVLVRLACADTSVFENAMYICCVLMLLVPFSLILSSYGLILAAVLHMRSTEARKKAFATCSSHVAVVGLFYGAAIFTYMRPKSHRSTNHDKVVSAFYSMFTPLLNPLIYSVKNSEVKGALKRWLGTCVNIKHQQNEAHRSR
Summary of the method: as §1

O2T34 = test system: T8, O2T34
T8 sequence (whole entry): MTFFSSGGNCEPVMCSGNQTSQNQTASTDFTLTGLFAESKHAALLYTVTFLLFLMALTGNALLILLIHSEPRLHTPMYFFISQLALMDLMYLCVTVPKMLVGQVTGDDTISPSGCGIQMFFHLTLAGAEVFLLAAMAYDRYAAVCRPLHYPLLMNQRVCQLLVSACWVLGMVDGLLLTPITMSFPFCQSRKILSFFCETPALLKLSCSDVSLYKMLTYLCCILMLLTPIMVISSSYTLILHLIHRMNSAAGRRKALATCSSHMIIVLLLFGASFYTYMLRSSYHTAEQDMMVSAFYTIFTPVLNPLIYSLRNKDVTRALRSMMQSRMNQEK
Summary of the method: as §1

O2T35 = test system: T9, O2T35
T9 sequence (whole entry): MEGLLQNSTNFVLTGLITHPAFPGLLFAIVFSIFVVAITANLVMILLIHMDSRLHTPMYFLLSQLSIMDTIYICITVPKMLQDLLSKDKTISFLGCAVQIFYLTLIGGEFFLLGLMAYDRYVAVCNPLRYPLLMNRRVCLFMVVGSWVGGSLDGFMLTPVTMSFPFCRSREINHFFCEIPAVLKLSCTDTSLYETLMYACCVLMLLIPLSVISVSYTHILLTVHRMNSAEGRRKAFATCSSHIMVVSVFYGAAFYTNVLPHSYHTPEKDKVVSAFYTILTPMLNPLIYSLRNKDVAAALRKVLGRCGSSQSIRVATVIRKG
Summary of the method: as §1

O4A15 = test system: O4A15
Summary of the method: as §1

Measured: odorant receptor agonist call;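 further: active if original authors judged signal statistically different from baseline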

CCC(C)=O
inactive: O2AG2 | O2AJ1 | O2AK2 | O2T11 | O2T29 [1] | O2T29 [2] | O2T33 | O2T34 | O2T35 | O4A15

CCCCOC(C)=O
inactive: O2AG2 | O2AJ1 | O2AK2 | O2T11 | O2T29 [1] | O2T29 [2] | O2T33 | O2T34 | O2T35 | O4A15

CS
inactive: O2AG2 | O2AJ1 | O2AK2 | O2T11 | O2T29 [1] | O2T29 [2] | O2T33 | O2T34 | O2T35 | O4A15
